Laboratory results taken from article PMC10648572.

Amino acid sequences for entries named in this document (tags omitted).
UniProt Q9H1X3: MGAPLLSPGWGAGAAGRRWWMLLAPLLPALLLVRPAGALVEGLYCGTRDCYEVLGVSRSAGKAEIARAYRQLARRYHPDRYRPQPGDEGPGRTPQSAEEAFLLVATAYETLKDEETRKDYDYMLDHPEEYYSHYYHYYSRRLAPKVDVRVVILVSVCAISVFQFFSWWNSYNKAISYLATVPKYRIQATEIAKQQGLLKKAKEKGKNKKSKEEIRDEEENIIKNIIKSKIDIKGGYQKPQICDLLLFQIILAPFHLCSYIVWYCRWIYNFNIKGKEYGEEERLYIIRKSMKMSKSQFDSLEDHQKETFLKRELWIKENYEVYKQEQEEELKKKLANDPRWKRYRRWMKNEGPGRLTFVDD

Target: T1, E3 ubiquitin protein ligase RING finger protein 149 (RNF149), 3×FLAG-tagged, stably overexpressed in Huh7 cells (human) (UniProt Q8NC42)
T1 sequence: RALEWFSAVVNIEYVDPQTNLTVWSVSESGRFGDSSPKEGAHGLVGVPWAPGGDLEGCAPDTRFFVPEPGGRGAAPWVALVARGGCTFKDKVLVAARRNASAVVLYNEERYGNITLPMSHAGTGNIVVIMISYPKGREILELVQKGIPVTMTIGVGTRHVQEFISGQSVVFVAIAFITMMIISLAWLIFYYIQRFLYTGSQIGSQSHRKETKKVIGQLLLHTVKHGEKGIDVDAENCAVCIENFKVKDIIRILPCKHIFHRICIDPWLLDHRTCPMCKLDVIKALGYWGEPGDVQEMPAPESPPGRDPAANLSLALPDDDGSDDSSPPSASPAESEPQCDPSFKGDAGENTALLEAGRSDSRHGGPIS
Assay: affinity purification with mass spectrometry; Huh7 cells with RNF149 overexpression, 50 μM MG132 for 6 h; whole cell lysate on anti-Flag-agarose beads; SDS-PAGE, Coomassie, MS (QE-HF); compared with negative control samples

binding: binds
Substance: DnaJ homolog subfamily C member 25 (DNAJC25), found in the RNF149 IP-MS from Huh7 cells (from UniProt Q9H1X3 1-360)

Results are given in words; binding and its absence hold for the method and conditions named. In cells and extracts the contact can be indirect. These calls come from enrichment with a bait or labelling near it, and not all partners need be listed. Where a sequence is shown, tags or fusion partners need not be part of it.
